PubChem BioAssay AID1224826 | NIAID | 2016

Purpose: 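Regulators of Tlr4 signalling leading to Tnf-alpha expression in macrophages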 (primary screen)
Cells: RAW264.7 G9 macrophages from mouse bearing reporters for p65 (GFP) and the Tnf promoter (mCherry)
Reagents: siRNA pool against mouse genes, 100 nM
Duration: 16 h of LPS stimulation, after 2 days of siRNA transfection
Treatment: bacterial lipopolysaccharide (Salmonella minnesota R595), 10 ng/ml
Measurement: 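Imaged Tnf reporter mCherry in nuclei, minus background, normalised per plate to the median and expressed as robust z-scores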
Direction: Tnf reporter robust z-score: higher = stronger Tnf promoter reporter signal after LPS
Rule for the call: 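Called active when robust z-score is at most -1.3, matching the median of the Tlr4 knock-down control, or over 3; control wells and wells with under 50 cells never active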
Calls: active = Tnf reporter clearly lowered or raised; inactive = no clear change in Tnf reporter
Here is an unselected part of about 17,000 deposited reagents. Of all reagents, about 1,110 (6.6%) are marked active. 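Active means lowered or raised reporter signal; replicate intensities are raw and not normalised per plate.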 Further read-outs or replicates are left out here. No sequences are given here.

{"Gene": "Slc10a1", "Tnf reporter robust z-score": 0.31, "fewer than 50 cells in well": "enough cells in well", "Call": "inactive"}
{"Gene": "Mfrp (membrane frizzled-related protein)", "Tnf reporter robust z-score": -0.64, "fewer than 50 cells in well": "enough cells in well", "Call": "inactive"}
{"Gene": "Or12e8 (olfactory receptor family 12 subfamily E member 8)", "Tnf reporter robust z-score": 2.21, "fewer than 50 cells in well": "enough cells in well", "Call": "inactive"}
{"Gene": "Pa2g4 (proliferation-associated 2G4)", "Tnf reporter robust z-score": -0.91, "fewer than 50 cells in well": "enough cells in well", "Call": "inactive"}
{"Gene": "Or6a2 (olfactory receptor family 6 subfamily A member 2)", "Tnf reporter robust z-score": -0.62, "fewer than 50 cells in well": "enough cells in well", "Call": "inactive"}
{"Gene": "Col12a1 (collagen, type XII, alpha 1)", "Tnf reporter robust z-score": -0.52, "fewer than 50 cells in well": "enough cells in well", "Call": "inactive"}
{"Gene": "Pes1 (pescadillo ribosomal biogenesis factor 1)", "Tnf reporter robust z-score": 0, "fewer than 50 cells in well": "enough cells in well", "Call": "inactive"}
{"Gene": "Nrk (Nik related kinase)", "Tnf reporter robust z-score": -1.17, "fewer than 50 cells in well": "enough cells in well", "Call": "inactive"}
{"Gene": "Fsip1 (fibrous sheath-interacting protein 1)", "Tnf reporter robust z-score": -0.08, "fewer than 50 cells in well": "enough cells in well", "Call": "inactive"}
{"Gene": "Or5d40 (olfactory receptor family 5 subfamily D member 40)", "Tnf reporter robust z-score": 0.23, "fewer than 50 cells in well": "enough cells in well", "Call": "inactive"}
{"Gene": "Zscan12 (zinc finger and SCAN domain containing 12)", "Tnf reporter robust z-score": 2.91, "fewer than 50 cells in well": "enough cells in well", "Call": "inactive"}
{"Gene": "Knop1 (lysine rich nucleolar protein 1)", "fewer than 50 cells in well": "fewer than 50 cells per well; well left out of calls", "Call": "inactive"}
